Test results taken from patent US8034843B2, “Compositions comprising cannabinoids for treatment of nausea, vomiting, emesis, motion sickness or like conditions” (priority 2002, dated 2011).
At least one compound was matched to its structure with a doubt left.

Test system: TNFα
Assay: TNFα Antagonism
Details: no reference given

Structure (SMILES)	TNFα Antagonism
C=C(C)[C@@H]1CCC(C)=C[C@H]1c1c(O)cc(CCC)cc1O [CBDV]	++
CCCc1cc(O)c2c(c1)OC(C)(C)[C@@H]1CCC(C)=C[C@@H]21 [THCV, Δ^9 tetrahydrocannabivarin]	+
